# At least one structure is not confirmed: it was looked up by name or label, or the drawing left a doubt.
# Test: 12-week placebo-controlled study: plasma fatty acid concentrations, ratios and proportions (GC/FID)
# Assay type: in vivo, human
# Settings: 12 weeks
# Protocol: A multi-center, placebo-controlled randomized, double-blind, 12-week study with an open-label extension is performed to evaluate the efficacy and safety of AMR101 in patients with fasting triglyceride levels ≧500 mg/dL. The primary objective of the study is to determine the efficacy of AMR101 2 g daily and 4 g daily, compared to placebo, in lowering fasting TG levels in patients with fasting TG levels ≧500 mg/dL and ≦1500 mg/dL (≧5.65 mmol/L and ≦16.94 mmol/L).
# Eligible patients will be randomly assigned at Visit 4 (Week 0) to receive orally AMR101 2 g daily, AMR101 4 g daily, or placebo for the 12-week double-blind treatment period. AMR101 is provided in 1 g liquid-filled, oblong, gelatin capsules. The matching placebo capsule is filled with light liquid paraffin and contains 0 g of AMR101. During the double-blind treatment period, patients will take 2 capsules (AMR101 or matching placebo) in the morning and 2 in the evening for a total of 4 capsules per day. Patients in the AMR101 2 g/day treatment group will receive 1 AMR101 1 g capsule and 1 matching placebo capsule in the morning and in the evening. Patients in the AMR101 4 g/day treatment group will receive 2 AMR101 1 g capsules in the morning and evening.
# Lipids were extracted from plasma and RBC suspensions and converted into fatty acid methyl esters for analysis using a standard validated gas chromatography/flame ionization detection method. Fatty acid parameters were compared between EPA treatment groups and placebo using an ANCOVA model with treatment, gender, type of statin therapy, and presence of diabetes as factors, and the baseline parameter value as a covariate. LSMs, SEs, and 2-tailed 95% confidence intervals for each treatment group and for each comparison were determined.
smiles,measurement,setting,value
"CC/C=C\C/C=C\C/C=C\C/C=C\C/C=C\CCCC(=O)OCC [IPE, Icosapent ethyl]",Mean placebo-adjusted plasma concentration of DHA (in words),2 g/day and 4 g/day,Neither dose of ultra-pure EPA produced a significant change
same,"Mean placebo-adjusted plasma concentrations of EPA, DPAn-3 and ratio of total omega-3 to omega-6 fatty acids (in words)",2 g/day and 4 g/day,significantly increased
same,"Mean placebo-adjusted plasma concentrations of arachidonic, palmitic, stearic, oleic, linoleic acid and plasma ratio of arachidonic acid to EPA (in words)",2 g/day and 4 g/day,significantly decreased
same,Proportion of monounsaturated fatty acids in plasma compared to placebo (in words),2 g/day or 4 g/day,decreased proportion of monounsaturated fatty acids
same,Proportion of omega-3 fatty acids in plasma compared to placebo (in words),2 g/day or 4 g/day,increased proportion of omega-3 fatty acids
same,Proportion of omega-6 fatty acids in plasma compared to placebo (in words),2 g/day or 4 g/day,decreased proportion of omega-6 fatty acids in plasma compared to placebo
same,Proportion of saturated fatty acids in plasma (in words),2 g/day or 4 g/day,Neither dose induced significant changes
